Measurements published in publication PMC7794384.
These are yes or no findings as the source states them, for the method shown. Binding seen in cells or lysates may run through a third protein. Here binding means that the protein was enriched with, or labelled near, the bait; the list need not be complete. Blank lines part the entries; values can stand above or below the molecule they belong to.

Amino acid sequences for entries named in this document (tags omitted). A change or cut given only in a name is not applied to a line headed by its entry.
UniProt J9VUF4: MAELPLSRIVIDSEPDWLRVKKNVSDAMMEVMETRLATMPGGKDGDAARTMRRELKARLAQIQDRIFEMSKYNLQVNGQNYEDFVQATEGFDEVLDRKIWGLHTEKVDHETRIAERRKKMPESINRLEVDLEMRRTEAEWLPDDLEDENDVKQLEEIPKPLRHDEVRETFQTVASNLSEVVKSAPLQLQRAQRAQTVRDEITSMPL
UniProt J9VIH9: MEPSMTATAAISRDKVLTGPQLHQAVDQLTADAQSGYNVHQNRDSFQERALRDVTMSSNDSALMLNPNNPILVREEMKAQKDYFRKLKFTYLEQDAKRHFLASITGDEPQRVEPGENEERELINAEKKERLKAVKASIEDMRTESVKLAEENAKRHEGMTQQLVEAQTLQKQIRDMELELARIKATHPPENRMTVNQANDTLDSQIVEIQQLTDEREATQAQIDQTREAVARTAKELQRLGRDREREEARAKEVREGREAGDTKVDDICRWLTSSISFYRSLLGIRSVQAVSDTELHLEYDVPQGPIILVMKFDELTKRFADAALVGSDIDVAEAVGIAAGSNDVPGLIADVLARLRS
UniProt J9VX48: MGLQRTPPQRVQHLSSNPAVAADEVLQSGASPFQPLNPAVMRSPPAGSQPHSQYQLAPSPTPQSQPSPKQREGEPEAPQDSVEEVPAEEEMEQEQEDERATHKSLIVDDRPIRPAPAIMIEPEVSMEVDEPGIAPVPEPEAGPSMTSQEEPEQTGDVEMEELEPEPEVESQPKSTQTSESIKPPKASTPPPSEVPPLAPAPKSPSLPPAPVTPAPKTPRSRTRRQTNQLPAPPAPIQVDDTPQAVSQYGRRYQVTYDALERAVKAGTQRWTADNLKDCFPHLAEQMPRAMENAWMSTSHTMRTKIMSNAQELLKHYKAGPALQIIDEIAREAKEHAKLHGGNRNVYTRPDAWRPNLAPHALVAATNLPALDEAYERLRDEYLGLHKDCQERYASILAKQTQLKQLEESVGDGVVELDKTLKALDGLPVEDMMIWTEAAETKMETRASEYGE
UniProt J9VGF6: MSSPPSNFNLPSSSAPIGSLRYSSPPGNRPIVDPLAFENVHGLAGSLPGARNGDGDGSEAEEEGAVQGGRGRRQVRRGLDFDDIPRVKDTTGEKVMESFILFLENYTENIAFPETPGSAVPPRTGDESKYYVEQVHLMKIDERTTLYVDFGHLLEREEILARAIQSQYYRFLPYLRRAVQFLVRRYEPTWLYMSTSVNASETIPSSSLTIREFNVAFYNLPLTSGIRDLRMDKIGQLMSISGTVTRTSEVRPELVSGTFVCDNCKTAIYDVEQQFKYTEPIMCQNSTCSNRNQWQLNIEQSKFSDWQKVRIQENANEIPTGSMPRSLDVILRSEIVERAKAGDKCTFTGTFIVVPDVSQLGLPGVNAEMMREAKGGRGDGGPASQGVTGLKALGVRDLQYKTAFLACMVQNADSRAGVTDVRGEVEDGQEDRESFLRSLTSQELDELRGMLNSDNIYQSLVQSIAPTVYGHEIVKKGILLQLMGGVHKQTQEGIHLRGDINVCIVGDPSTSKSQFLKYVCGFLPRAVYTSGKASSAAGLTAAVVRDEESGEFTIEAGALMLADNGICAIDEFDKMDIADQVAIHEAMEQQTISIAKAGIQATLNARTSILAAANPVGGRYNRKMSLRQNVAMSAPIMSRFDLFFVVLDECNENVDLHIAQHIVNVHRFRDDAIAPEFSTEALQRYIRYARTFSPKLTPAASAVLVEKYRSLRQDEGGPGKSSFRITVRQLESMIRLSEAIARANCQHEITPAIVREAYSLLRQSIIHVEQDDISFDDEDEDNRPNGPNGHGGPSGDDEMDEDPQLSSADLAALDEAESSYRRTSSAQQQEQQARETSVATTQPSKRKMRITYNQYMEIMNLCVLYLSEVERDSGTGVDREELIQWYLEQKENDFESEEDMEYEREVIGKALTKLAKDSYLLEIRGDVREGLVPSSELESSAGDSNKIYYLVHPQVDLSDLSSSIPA

Experiments:
[1] = biological target: 3×FLAG-GFP-Bgi1^FL (C. neoformans) (UniProt J9VZK6); test: affinity purification with mass spectrometry; FLAG-IP (anti-FLAG M2 on Dynabeads) of 3×FLAG-tagged baits from lysate of TBZ-treated C. neoformans cells, binding buffer BB150 (25 mM HEPES pH 8.0, 150 mM KCl, 0.1% NP-40), 4 °C, eluted with 3×FLAG peptide, nano LC–MS–MS
[2] = biological target: 3×FLAG-GFP-Bgi1^FL (C. neoformans) (UniProt J9VZK6); test: affinity purification with mass spectrometry; as a1 but 300 mM KCl throughout (BB300), the more stringent condition; FLAG-IP of Bgi1^FL
[3] = biological target: 3×FLAG-GFP-Bgi1^FL (C. neoformans) (UniProt J9VZK6); test: affinity purification with mass spectrometry; FLAG-IP (anti-FLAG M2 on Dynabeads) of 3×FLAG-tagged baits from lysate of TBZ-treated C. neoformans cells, binding buffer BB150 (25 mM HEPES pH 8.0, 150 mM KCl, 0.1% NP-40), 4 °C, eluted with 3×FLAG peptide, nano LC–MS–MS; remark: listed apart in the source
[4] = biological target: Dsn1-3×FLAG (C. neoformans); test: as above
[5] = biological target: CENP-C^Mif2-3×FLAG (C. neoformans); test: as above
[6] = biological target: Spc25-3×FLAG (C. neoformans); test: as above

Molecule: Nsl1 (CNAG_04300) (from UniProt J9VUF4)
binding [1]: binds | binding [2]: binds

Molecule: Sos7 (CNAG_03715) (from UniProt J9VIH9)
binding [1]: binds | binding [2]: binds

Molecule: Nnf1 (CNAG_04479) (from UniProt J9VX48)
binding [1]: binds | binding [2]: binds

The next lines start with the values.

binding [1]: binds | binding [2]: binds
Molecule: Mcm6 (from UniProt J9VGF6)

binding [3]: binds | binding [4]: binds | binding [5]: binds | binding [6]: binds | binding [2]: binds
B1: Mcm7 (protein, UniProt J9VU53 1-788)
chain: MATNDAGASVMPVANVQINYEEESAKIEDFLERYVAGPRPRRNQDALPADDDAAAEDTSEDEDDLAEGMDGLNVQGARRTKFKYLRMLREVANRRREDIVIDLKDLKRHSNDLSLLHNIQNNTRRYIQLFSDVIDKIMPPPDNEVDYSSDVLDLIMQQRREMNAQVEAGERNADAGMFPPELMRRYNVYFRPLRSDDVLAVRAVRGAHLGKLITVRGIVTRVSEVKPLLIVNAYTCDSCGNEIFQEITQKHFAPLTVCPSDVCVRNQTKGQLHMQTRASRFRPFQEVKIQEMADQVPVGHIPRSMTIHLYGALTRSVNPGDVVHIGGIFIPTPYTGMRALRAGLLQDTFLEAMHVHQLKKQYHTMESTPEIQEAIADLKSDPALYARLANSIAPEIYGHEDVKKALLLLLVGGVTNSRKDGMKIRGDINVCLMGDPGVAKSQLLKYITKVAPRGVYTTGRGSSGVGLTAAVMRDPVTDEMVLEGGALVLADNGICCIDEFDKMEESDRTAIHEVMEQQTISISKAGITTTLNARTSILAAANPLYGRYNPKISPVENINLPAALLSRFDVLFLILDSPTREDDERLAQHVCFVHMHNTHPELDFEPVDPTLMRHYIAECRKIEPRVPQALSEYIVSSYVQMRKQQQEDEAEEKSHSYVSARTLLAVLRLSQALARLRHDDIVQQGDVDEALRLMDVSKASLYEHSQQRNGEDQTSTSKIFRIIKDMAQRAADEGDDEEMGELAMMDVRNRVIAKGFTEMQLMETILEYENMDVLMRTANGSRLQFVTV
